In patent publication US7858806B2, “Crystal form of 5-hydroxy-1-methylhydantoin” (Nippon Zoki Pharmaceutical Co., Ltd., priority 2002, dated 2010):
Values joined by “and” are separate entries in the source; they are usually repeats but may differ in a detail not shown here. Equal entries are not always repeated.

Assay: Residual organic solvent by capillary gas chromatography
Format: physicochemical
Procedure: The present invention relates to a novel crystal form of 5-hydroxy-1-methylhydantoin where there is substantially no residue of organic solvent. Here, the expression reading “substantially no residue of organic solvent” means that the residual organic solvent is not more than the detection limit (1 ppm) when the measurement is carried out according to a conventional method for the measurement of residual organic solvent such as a gas chromatography mentioned in “Test Method for Residual Solvent” of the Japanese Pharmacopoeia (14th edition).
In the following Examples, an example of process for the production of 5-hydroxy-1-methylhydantoin and its II-form crystals of the present invention will be described in more detail. […] Infrared absorption spectrum was measured by a potassium bromide disk method using Fourier-transform infrared spectrophotometer (Horiba) of FT-200 type. […] Melting point was measured using a melting point measuring apparatus (Yamato Kagaku) of MP-21 type. Nuclear magnetic resonance spectrum (^1H-NMR) was measured by a nuclear magnetic resonance apparatus (Bruker) of ARX-500 type by using TMS (δ=0) as an internal standard substance. […]
The residual organic solvent (acetone) in the resulting I-form crystals was measured by a capillary gas chromatography (Headspace method). […]

| SMILES | residual organic solvent (acetone) (Headspace method, 4 lots, crystals recrystallized from acetone (Reference Example 1)) | residual organic solvent used during purification such as acetone (direct injection method, detection limit 1 ppm, crystals recrystallized from water) |
| --- | --- | --- |
| CN1C(=O)NC(=O)C1O (centres unmarked) [I-form crystals, 5-hydroxy-1-methylimidazolidin-2,4-dione] | 1660±150 ppm and 1430±253 ppm and 1621±70 ppm and 1336±144 ppm | – |
| CN1C(=O)NC(=O)C1O (centres unmarked) [II-form crystals, 5-hydroxy-1-methylimidazolidin-2,4-dione] | – | ≤ 1 ppm |
